Data taken from article doi:10.1101/2022.01.26.477890.
No constants are given. Whether binding was seen depends on the method and setting. Binding calls can cover weak binding; strength is not graded here. For some assays here: In cells and extracts the contact can be indirect.

Experiments:
[1] = target: FLAG-STREP-tagged P. putida histidine kinase (PP_3835) (Pseudomonas putida KT2440) (UniProt Q88G90); assay: pull-down
[2] = target: P. putida KT2440 histidine kinase (two-hybrid fusion) (Pseudomonas putida KT2440) (UniProt Q88G90); assay: two-hybrid

His10Smt3-KaiC P. putida KT2440 (from UniProt Q88G91)
binding [1]: binds

P. putida KT2440 KaiC homolog (two-hybrid fusion) (from UniProt Q88G91)
binding [2]: binds weakly
